From publication PMC2765639 (PLoS Neglected Tropical Diseases, 2009)
Where two headings read alike, the source gives them in different places.

How the values were obtained:
L. major promastigotes [1] = assay: L. major promastigote drug susceptibility assay (alamar blue, 384-well); assay type: cell-based; details: Leishmania major
Procedure: Promastigotes were grown in vented T75 tissue culture flasks and maintained at 28°C. Promastigote cultures were initiated at 10^5 parasites per mL and subcultured every 3–4 days. L. major promastigote counts were performed in duplicate using a hemocytometer and particle counter (Beckman Coulter, Fullerton, CA). For HTS assays, L. major promastigote cultures were harvested during exponential growth phase (∼2.0–3.0×10^7 parasites/mL) and were not maintained past passage 20.
The final test compound concentration was 10 µM with a constant DMSO concentration of 1% in each assay well.
The L. major promastigote drug susceptibility assay was performed in a final volume of 25 µL using our previously described 384-well microtiter plate format,[39]. For automated HTS procedures, L. major promastigotes (5,000 parasites/22 µL) in complete growth medium were seeded into each well of the microtiter plates using a MAPC2 bulk dispenser (Titertek, Huntsville, AL). Test and control compounds (3 µL) were added to individual wells using a Velocity 11 V-prep (Menlo Park, CA) liquid handling system, equipped with a 384-well dispensing head, followed by centrifugation at 50 g for 1 min. […] Assay plates were allowed to incubate for 44 h at 28°C in the presence of 5% CO2. Five µL of alamar blue reagent were added to each assay plate well and incubated for 4 h at 28°C with 5% CO2. […]

[2] = system: L. major axenic amastigote-like population; assay: L. major axenic amastigote-like alamar blue assay (pH 4.9); assay type: cell-based; details: Leishmania major; pH 4.9, 144 h, 32°C; read-out: L. major axenic amastigote-like EC50 (AVE±SD) Confirmation Alamar Blue
A549 = assay: Mammalian cell line specificity assay (alamar blue); assay type: cell-based; details: Homo sapiens
Procedure: (§1) Mammalian cells were cultured and maintained according to ATCC specifications (ATCC, Manassas, VA). Cell line drug susceptibility assays were performed in final volumes of 25 µL using our previously described 384-well microtiter plate format,[39]. Briefly, for automated HTS procedures, cells (A549, IMR-90 and, HeLa, 1,000 cells; PC-3, 750 cells and; MDA-MB-231, 3,000 cells) in complete culture medium were seeded into each well of 384-well microtiter plates using a Titertek MAPC-2 bulk dispenser. Test and control compounds were added to individual wells as described above. Vehicle and positive controls were 1% DMSO and 10% DMSO, respectively (final well concentrations). Assay plates were incubated for 44–46 h at 37°C in the presence of 5% CO2 and growth inhibitory effects were determined as described above. Five µL of alamar blue reagent was added to each well and incubated for 2–4 h. Data were captured as described above.

HeLa = assay: as above; assay type: cell-based; details: Homo sapiens, 44–46 h, read-out: HeLa EC50 (AVE±SD)
Procedure: as §1

IMR-90 = assay: as above; assay type: cell-based; details: Homo sapiens, 44–46 h, read-out: IMR90 EC50 (AVE±SD)
Procedure: as §1

MDA-MB-231 = assay: as above; assay type: cell-based; details: Homo sapiens, 44–46 h, read-out: MDA EC50 (AVE±SD)
Procedure: as §1

PC-3 = assay: as above; assay type: cell-based; details: Homo sapiens, 44–46 h, read-out: PC-3 EC50 (AVE±SD)
Procedure: as §1

L. major promastigotes [3] = assay: Flow cytometer-based growth inhibition and cytotoxicity assay; details: Leishmania major, 48 h, read-out: L. major promastigote EC50 (AVE±SD) Confirmation Flow Cytometry

EC50 (L. major promastigotes [1]; 48 h, compounds from commercial supplier, 44 h + 4 h alamar blue, 28°C, read-out: L. major promastigote EC50 (AVE±SD) Confirmation Alamar Blue): 220 ± 110 nM | EC50 (L. major promastigotes [1]; Table S1, PMLSC library samples, 10-point 0.01–5.00 µM, read-out: EC50 Ave ± SD, Lm): 147 ± 30 nM | EC50 [2]: 750 ± 200 nM | EC50 (A549; 44–46 h, alamar blue, read-out: A549 EC50 (AVE±SD)): > 50000 nM | EC50 (A549; Table S1, PMLSC library samples, read-out: EC50 Ave ± SD, A549): > 5000 nM | EC50 (HeLa): > 50000 nM | EC50 (MDA-MB-231): > 50000 nM | EC50 (PC-3): > 50000 nM
SMILES: Clc1ccccc1C(c1ccccc1)(c1ccccc1)n1ccnc1 [Clotrimazole, reference compound]
EC50 (IMR-90): > 50000 nM | EC50 (L. major promastigotes [3]): 290 ± 120 nM
